At least one compound was matched to its structure with a doubt left.
System: tumor inflammation-related adverse effects
Details: preliminary data; confirmed PR and SD observed in patients given prophylaxis

## C[C@H]1C[C@@H]2[C@H]([C@@H](O)C[C@@]3(C)[C@H]2CC[C@]3(O)C(=O)CO)[C@@]2(C)C=CC(=O)C=C12 [methylprednisolone]
  effect of prophylactic steroid doses on anti-tumor activity of CEA-TCB monotherapy or combination with atezolizumab: did not impair the anti-tumor activity

— US20200199230A1, “TREATMENT METHOD” (Hoffmann-La Roche Inc., priority 2017, published 2020)
